Laboratory results as given in patent US20080242557A1, “System For Detecting Molecular Interactions” (CGK CO., LTD., priority 2004, published 2008).
For at least one compound, name, drawing or mass did not settle the structure.

Chains of the proteins cited; added tags and fusions are not shown.
UniProt Q13315, whole entry, species assumed: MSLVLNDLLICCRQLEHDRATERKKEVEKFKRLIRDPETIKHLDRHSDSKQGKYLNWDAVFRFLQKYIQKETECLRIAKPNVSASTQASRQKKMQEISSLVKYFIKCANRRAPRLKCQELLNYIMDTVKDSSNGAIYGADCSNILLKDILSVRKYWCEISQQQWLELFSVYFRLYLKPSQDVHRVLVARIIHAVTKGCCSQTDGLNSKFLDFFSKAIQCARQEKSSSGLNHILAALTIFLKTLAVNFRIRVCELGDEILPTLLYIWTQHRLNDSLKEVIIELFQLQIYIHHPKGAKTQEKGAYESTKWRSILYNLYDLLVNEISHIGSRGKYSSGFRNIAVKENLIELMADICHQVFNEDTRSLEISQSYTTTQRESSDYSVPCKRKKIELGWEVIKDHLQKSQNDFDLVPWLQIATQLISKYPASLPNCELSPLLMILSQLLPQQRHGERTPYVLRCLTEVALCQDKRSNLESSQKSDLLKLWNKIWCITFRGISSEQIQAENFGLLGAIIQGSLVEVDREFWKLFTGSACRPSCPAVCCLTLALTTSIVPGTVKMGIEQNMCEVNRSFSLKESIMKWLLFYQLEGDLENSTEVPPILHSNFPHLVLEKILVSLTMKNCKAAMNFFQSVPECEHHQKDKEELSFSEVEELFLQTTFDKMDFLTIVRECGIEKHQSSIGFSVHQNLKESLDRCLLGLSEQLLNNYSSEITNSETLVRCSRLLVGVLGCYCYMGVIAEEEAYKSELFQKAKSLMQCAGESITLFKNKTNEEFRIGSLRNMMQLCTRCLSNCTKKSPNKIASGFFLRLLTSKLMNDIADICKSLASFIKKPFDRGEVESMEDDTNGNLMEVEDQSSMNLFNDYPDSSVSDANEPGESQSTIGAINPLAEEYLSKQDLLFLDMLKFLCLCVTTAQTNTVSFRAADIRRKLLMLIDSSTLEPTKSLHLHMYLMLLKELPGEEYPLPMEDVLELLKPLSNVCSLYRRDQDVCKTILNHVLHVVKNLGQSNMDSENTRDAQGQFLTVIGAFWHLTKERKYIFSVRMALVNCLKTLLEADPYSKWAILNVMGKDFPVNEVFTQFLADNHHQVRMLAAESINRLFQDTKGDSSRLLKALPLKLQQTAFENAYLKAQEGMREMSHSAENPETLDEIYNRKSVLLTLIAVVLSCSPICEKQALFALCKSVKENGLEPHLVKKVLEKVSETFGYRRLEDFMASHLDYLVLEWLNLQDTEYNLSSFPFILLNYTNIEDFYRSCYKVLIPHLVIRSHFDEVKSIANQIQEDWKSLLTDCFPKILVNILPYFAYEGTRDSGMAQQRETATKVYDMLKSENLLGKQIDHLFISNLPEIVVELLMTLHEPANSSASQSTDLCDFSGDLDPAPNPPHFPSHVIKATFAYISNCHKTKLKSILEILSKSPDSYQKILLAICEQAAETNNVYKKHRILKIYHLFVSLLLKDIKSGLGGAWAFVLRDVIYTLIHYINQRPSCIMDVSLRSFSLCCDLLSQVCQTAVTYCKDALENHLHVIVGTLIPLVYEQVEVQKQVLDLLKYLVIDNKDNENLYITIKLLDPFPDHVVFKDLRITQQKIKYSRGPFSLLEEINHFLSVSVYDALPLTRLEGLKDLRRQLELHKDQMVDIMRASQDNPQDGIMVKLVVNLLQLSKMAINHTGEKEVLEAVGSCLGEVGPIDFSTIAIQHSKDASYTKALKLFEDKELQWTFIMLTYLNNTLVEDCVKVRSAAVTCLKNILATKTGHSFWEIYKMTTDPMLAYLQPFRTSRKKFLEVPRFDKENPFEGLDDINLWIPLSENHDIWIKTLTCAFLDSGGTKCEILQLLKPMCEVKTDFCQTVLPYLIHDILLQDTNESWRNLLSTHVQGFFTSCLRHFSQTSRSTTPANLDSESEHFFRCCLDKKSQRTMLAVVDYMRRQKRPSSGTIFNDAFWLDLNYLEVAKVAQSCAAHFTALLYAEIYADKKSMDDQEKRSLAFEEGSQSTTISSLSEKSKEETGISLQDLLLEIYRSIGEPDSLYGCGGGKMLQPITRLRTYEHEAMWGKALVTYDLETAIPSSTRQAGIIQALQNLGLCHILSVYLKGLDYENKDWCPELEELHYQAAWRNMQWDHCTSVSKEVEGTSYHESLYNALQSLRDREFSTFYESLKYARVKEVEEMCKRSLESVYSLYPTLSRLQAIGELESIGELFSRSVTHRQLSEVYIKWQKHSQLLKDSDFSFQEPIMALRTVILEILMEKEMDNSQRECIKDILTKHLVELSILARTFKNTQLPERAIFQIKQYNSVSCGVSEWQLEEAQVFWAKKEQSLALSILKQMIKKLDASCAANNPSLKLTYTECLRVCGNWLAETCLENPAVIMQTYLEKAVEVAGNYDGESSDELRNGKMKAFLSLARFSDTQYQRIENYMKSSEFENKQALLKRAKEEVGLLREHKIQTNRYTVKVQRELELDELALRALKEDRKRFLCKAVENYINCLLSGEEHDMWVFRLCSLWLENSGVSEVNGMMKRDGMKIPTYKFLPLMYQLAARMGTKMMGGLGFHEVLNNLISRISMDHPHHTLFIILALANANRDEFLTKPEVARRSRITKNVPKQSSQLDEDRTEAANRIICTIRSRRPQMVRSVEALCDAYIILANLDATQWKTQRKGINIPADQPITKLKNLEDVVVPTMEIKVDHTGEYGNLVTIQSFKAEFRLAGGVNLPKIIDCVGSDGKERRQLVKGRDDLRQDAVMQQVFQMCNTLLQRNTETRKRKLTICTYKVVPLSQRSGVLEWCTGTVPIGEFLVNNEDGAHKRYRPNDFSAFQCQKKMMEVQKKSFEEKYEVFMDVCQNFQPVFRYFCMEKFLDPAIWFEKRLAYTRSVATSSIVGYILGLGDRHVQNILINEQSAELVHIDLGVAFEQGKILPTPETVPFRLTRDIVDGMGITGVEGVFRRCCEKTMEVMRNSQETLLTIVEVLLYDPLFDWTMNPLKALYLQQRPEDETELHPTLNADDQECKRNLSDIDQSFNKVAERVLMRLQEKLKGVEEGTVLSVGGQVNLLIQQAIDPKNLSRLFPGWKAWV

Experiments:
FKBP52 = molecular target: T1, FKBP52 (Homo sapiens, UniProt Q02790); assay: Screening of binding partner of FK506 from genome level cDNA (EGFP-fusion) expression library in HeLa cells; format: cell-based; settings: Jurkat EGFP-fusion retrovirus library in HeLa cells; sequence analysis of RT-PCR product
T1 construct: expressed in transfected cells; host or cells: HeLa cells infected with a retroviral EGFP-fusion cDNA library made from Jurkat cells
T1 sequence (Q02790 1-459): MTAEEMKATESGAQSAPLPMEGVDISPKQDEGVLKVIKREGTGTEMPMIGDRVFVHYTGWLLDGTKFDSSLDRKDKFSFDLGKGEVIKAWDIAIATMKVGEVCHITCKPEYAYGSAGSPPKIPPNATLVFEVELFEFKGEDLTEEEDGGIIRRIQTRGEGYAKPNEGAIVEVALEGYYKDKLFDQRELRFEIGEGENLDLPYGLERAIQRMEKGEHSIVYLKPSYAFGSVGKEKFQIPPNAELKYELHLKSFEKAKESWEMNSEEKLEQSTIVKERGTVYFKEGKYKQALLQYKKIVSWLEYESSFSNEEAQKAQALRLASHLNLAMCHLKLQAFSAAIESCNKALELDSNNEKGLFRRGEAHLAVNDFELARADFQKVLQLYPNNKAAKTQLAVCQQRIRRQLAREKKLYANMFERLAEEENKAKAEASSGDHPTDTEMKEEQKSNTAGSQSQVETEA

ATM = molecular target: T2, ATM (Homo sapiens, UniProt Q13315); assay: Inhibition of CGK606-MNPs / ATM-mRFP translocation in HeLa cells by test compounds; format: cell-based; settings: HeLa cells treated with various bioactive low molecular weight compounds (FIG. 24)
T2 construct: expressed in transfected cells; host or cells: HeLa

Row | SMILES | identity of positive clones from expression library (FKBP52) (FKBP52) | inhibition of localization of ATM-mRFP fusion protein by CGK606-MNPs under magnetic field (ATM) | inhibition of localization of ATM-mRFP fusion protein by CGK606-MNPs under magnetic field (ATM; listed as WT)
1 | C=CC[C@@H]1/C=C(\C)C[C@H](C)C[C@H](OC)[C@H]2O[C@@](O)(C(=O)C(=O)N3CCCC[C@H]3C(=O)O[C@H](/C(C)=C/[C@@H]3CC[C@@H](O)[C@H](OC)C3)[C@H](C)[C@@H](O)CC1=O)[C@H](C)C[C@@H]2OC [FK506] | FKBP 12 and FKBP52 which were the targets of the FK506 |  | 
2 | COC[C@H]1OC(=O)c2coc3c2[C@@]1(C)C1=C(C3=O)[C@@H]2CCC(=O)[C@@]2(C)C[C@H]1OC(C)=O [wortmannin] |  | inhibited the localization of an ATM-mRFP fusion protein | inhibits the interaction between ATM phosphorylation enzyme and CGK606
